Laboratory results: paper PMC12561191
These are yes or no findings as the source states them, for the method shown. In cells and extracts the contact can be indirect. Some entries that bind do so weakly or less than the wild type.

The chains behind the UniProt entries cited, without tags or fusion partners.
UniProt Q07813: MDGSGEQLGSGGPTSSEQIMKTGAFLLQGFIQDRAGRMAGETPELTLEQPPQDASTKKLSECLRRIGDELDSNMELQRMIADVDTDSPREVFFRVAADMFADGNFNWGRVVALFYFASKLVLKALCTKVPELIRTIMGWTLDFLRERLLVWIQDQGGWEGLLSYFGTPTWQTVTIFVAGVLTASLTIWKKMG
UniProt Q07812: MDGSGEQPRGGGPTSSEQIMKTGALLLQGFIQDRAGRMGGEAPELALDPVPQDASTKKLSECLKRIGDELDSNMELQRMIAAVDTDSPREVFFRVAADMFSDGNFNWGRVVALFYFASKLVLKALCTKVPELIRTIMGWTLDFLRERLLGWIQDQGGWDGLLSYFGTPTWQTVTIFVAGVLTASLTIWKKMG
UniProt P23475: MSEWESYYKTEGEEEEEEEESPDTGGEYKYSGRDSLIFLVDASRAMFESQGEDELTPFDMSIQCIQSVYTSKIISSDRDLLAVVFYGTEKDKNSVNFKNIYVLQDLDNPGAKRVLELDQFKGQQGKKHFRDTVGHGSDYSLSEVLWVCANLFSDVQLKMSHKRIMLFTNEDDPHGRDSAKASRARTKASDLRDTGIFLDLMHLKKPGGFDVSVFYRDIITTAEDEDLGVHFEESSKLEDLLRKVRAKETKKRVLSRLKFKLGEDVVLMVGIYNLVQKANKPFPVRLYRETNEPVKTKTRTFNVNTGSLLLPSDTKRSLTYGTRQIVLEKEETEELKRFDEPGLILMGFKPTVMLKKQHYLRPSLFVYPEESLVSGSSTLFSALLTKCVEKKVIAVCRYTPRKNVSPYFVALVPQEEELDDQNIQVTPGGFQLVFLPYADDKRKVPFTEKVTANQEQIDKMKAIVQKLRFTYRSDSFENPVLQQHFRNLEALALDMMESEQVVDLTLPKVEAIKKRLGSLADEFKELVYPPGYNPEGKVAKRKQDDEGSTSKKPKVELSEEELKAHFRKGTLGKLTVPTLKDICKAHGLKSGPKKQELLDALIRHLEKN
UniProt P12956: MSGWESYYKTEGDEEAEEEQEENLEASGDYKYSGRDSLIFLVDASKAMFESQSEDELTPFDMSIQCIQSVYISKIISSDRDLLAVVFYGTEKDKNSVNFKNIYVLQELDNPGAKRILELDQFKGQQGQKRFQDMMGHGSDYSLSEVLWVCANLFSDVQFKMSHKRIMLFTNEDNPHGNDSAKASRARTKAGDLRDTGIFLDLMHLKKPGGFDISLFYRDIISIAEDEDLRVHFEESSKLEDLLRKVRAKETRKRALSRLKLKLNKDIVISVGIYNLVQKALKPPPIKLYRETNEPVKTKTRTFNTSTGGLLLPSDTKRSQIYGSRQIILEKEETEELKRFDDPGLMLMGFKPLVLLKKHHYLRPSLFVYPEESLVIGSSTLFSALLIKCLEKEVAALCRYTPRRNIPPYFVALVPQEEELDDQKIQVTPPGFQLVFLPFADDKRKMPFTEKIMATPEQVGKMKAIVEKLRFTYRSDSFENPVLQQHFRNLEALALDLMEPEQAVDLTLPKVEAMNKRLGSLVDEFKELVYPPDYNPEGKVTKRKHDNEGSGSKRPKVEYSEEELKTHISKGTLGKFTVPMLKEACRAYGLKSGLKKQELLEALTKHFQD

What was measured:
[1] = molecular target: Bcl2‐associated X protein (BAX), endogenous in primary WT mouse cardiocytes (mouse (endogenous in primary cardiocytes)) (UniProt Q07813); experiment: co-IP; endogenous proteins in lysates (IP lysis buffer: 50 mM HEPES pH 7.4, 150 mM NaCl, 0.1% Triton X-100, 2 mM EGTA) of AC16 cells and primary WT cardiocytes, Ang II (0.2 µM) for 48 h; Anti-MANF (Abcam ab67271) or Anti-BAX (Abcam ab182733) overnight at 4 °C, protein A/G plus-agarose; immunoblot
[2] = molecular target: Bcl2‐associated X protein (BAX), endogenous in AC16 cells (human (endogenous in AC16)) (UniProt Q07812); experiment: as above

| Substance | binding [1] | binding [2] |
| --- | --- | --- |
| Ku70, endogenous in primary WT mouse cardiocytes (from UniProt P23475 1-608) | binds | – |
| Ku70, endogenous in AC16 cells (from UniProt P12956 1-609) | – | binds |
